According to US20100234238A1, “METHOD FOR PROFILING KINASE INHIBITORS” (Janssen Pharmaceutica N V, priority 2006, published 2010):
This continues a long series; more values of the same kind are listed elsewhere.

Test system: tyrosine kinase activity in lysates prepared from cell lines
Test: PAMCHIP96 tyrosine peptide array profiling of lysates of 27 cell lines in absence or presence of MTKI
Assay type: biochemical
Conditions: 5 μM
Source text: PAMGENE technology using the tyrosine peptide PAMCHIP96 allows the kinetic detection of the phosphorylation of 144 tyrosine peptides spotted onto a 3-dimensional porous well of a 96-well plate (www.pamgene.com). This technology can be used to measure the activity of purified kinases and the effects of kinase inhibitors thereon. Phosphotyrosine peptides are detected using a mix of fluorescently labeled anti-phosphotyrosine antibodies. Phosphorylation of peptides can be followed in real time due to the possibility of removing the reaction mix for a few seconds during the assay by a pumping mechanism to allow CCD camera detection of phosphopeptides bound to the fluorescent antibody. These consecutive datapoints (quantified spot images) generate a kinetic curve for each individual peptide, and allow for the calculation of initial velocities and endpoints associated with each individual peptide.
Cells cultured in appropriate medium in T175 flasks, treated with compound if necessary, are harvested at 70-90% confluency.
Media is removed, cells are washed with 10 ml ice cold PBS containing 0.1 mM NaVO4 and lysed in 1 ml of M-PER buffer (PIERCE) containing phosphatase and protease inhibitors (HALT, PIERCE). Cells are collected by scraping, and centrifuged for 10 minutes at 12 000×g. Supernatant lysates are filtered through a 0.2 micrometer filter (Anotop 0.2 μm anopore filter; Whatmann). Lysates are flash frozen in liquid nitrogen and stored at −80C.
Just prior to the PAMCHIP experiment, total protein content is quantitated in the lysates and lysates are diluted to 1 mg/ml in a total volume of 200 μl, with M-PER phosphatase and protease inhibitors (HALT, PIERCE). 10 μg of total lysate (corresponding to 10 μl) will be used per well on the PAMCHIP96.
To all 200 μl lysates 10 units of benzonase (Novagen) is added and lysates are further incubated for 30 min on ice and next centrifuged for 10 minutes at 12 000×g. The supernatant is then 1:1 diluted with compound or DMSO diluted to the appropriate concentration in water, and lysates are further incubated exactly 60 min on ice. Meanwhile, a PAMCHIP96 tyrosine peptide chip (PAMGENE) is blocked with 2% BSA (filtered through a 0.2 μm anopore filter; Whatmann) using the standard setting of a PAMSTATION96 (PAMGENE).
The composition of the kinase buffer is as follows: 1×ABL buffer (NEB), 0.5 mg/ml BSA (from 10 mg/ml NEB stock), 100 μM ATP (dissolved and diluted in 1×ABL buffer), 5 μg/ml PY20-FITC (ExAlpha Biologicals, azide-free preparation). A twofold concentrated kinase buffer is prepared chilled on ice, DMSO or compound is added as appropriate, and the solution is added 1:1 to the (compound treated) ice cold lysates, and immediately applied to a tyrosine peptide PAMCHIP96. The assay is run on a PAMSTATION96 according to standard procedures: after loading of the plate, solution is pumped once onto the wells, a first exposure is read (150 mSec) and then a kinetic reading program (reading every 5 min for 150 mSec) is run for 60 min. Lysates are run in 6 technical replicates for each condition; replicates are always applied horizontally next to each other to avoid vertical strip effects of the chip.
The data (spot images) are further quantified and linked to the peptide identities using EVOLVE PAMGRID software (PAMGENE). The quantified data are then fit to a curve using CurveFitHT software (PAMGENE) using the Vinip2 curve fitting algorithm, applied on the first 30 min of the assay; the initial velocity is derived at the first kinetic time point read. All subsequent data analyses were done on initial velocities (Vini) using the software packages Omniviz and R (Ihaka, R. and Gentlemen, R. (1996) R: a language for data analysis and graphics. J. Comput. Graph. Stat., 5, 299-314).
After replacing the Vini's lower than 0.1 by 0.1, all Vini's were log 2-transformed to approach normality.

Measured: ratio of initial velocity of peptide phosphorylation

COc1cc2ncnc3c2cc1OCCCCCN(C)Cc1ccc(Br)cc1N3 [MTKI, 4,6-ethanediylidenepyrimido[4,5-b][6,1,12]benzoxadiazacyclopentadecine, 17-bromo-8,9,10,11,12,13,14,19-octahydro-20-methoxy-13-methyl-]
0.97: MDA231PAR lysate, PRRX2_202_214_Y214 | MKN45 lysate, NPT2_501_513_T508 | MKN45 lysate, STAT2_683_695_Y690 | MOLT4 lysate, TYRO3_679_691_Y686 | SHSY5Y lysate, CDK7_157_169_S164 | U118MG lysate, MK10_216_228_T221/Y223 | U118MG lysate, STAT2_683_695_Y690
0.88: MDAMB435s lysate, RASA1_453_465_Y460 | SUM149 lysate, CREB1_122_134_Y134/S133
0.90: MKN45 lysate, CDK7_157_169_S164 | RSJSA1 lysate, PLCG1_764_776_Y771
0.93: MDA231PAR lysate, ENOG_37_49_Y43 | MDA231PAR lysate, PLCG1_764_776_Y771 | MDAMB435s lysate, TYRO3_679_691_Y686 | SUM149 lysate, RASA1_453_465_Y460
1.26: SHSY5Y lysate, NCF1_313_325_S315/S320
1.29: MDAMB435s lysate, MK10_216_228_T221/Y223
0.85: MOLT4 lysate, MK10_216_228_T221/Y223 | RSJSA1 lysate, PECA1_706_718_Y713 | U118MG lysate, CDK7_157_169_S164 | U118MG lysate, ENOG_37_49_Y43
1.00: MDA231PAR lysate, STAT2_683_695_Y690 | MKN45 lysate, TYRO3_679_691_Y686 | RSJSA1 lysate, NCF1_313_325_S315/S320 | U118MG lysate, DDR2_733_745_Y740
1.17: RSJSA1 lysate, RASA1_453_465_Y460 | SHSY5Y lysate, CREB1_122_134_Y134/S133 | SHSY5Y lysate, NPT2_501_513_T508 | SHSY5Y lysate, STAT2_683_695_Y690
0.92: MDA231PAR lysate, SYN1_2_14_S9 | MKN45 lysate, PLCG1_764_776_Y771 | MKN45 lysate, RASA1_453_465_Y460 | SHSY5Y lysate, PRRX2_202_214_Y214 | SNU5 lysate, RASA1_453_465_Y460 | U118MG lysate, PECA1_706_718_Y713
0.41: SUM149 lysate, GSK3B_209_221_Y216
0.76: MDAMB435s lysate, PECA1_706_718_Y713 | SUM149 lysate, TYRO3_679_691_Y686
0.79: MOLT4 lysate, RASA1_453_465_Y460 | SUM149 lysate, MK10_216_228_T221/Y223 | SUM159 lysate, PLCG1_764_776_Y771
1.13: MDA231PAR lysate, CDK7_157_169_S164 | SUM159 lysate, GSK3B_209_221_Y216
1.06: SUM149 lysate, NCF1_313_325_S315/S320 | U118MG lysate, GSK3B_209_221_Y216
0.91: MKN45 lysate, ENOG_37_49_Y43 | MOLT4 lysate, CDK7_157_169_S164 | SNU5 lysate, STAT2_683_695_Y690 | SUM149 lysate, ENOG_37_49_Y43 | U118MG lysate, PLCG1_764_776_Y771 | U118MG lysate, TYRO3_679_691_Y686
0.84: MDAMB435s lysate, ENOG_37_49_Y43 | SNU5 lysate, PLCG1_764_776_Y771 | SUM159 lysate, PRRX2_202_214_Y214
0.83: MDA231PAR lysate, MK10_216_228_T221/Y223 | MKN45 lysate, PECA1_706_718_Y713 | NCI-N87 lysate, GSK3B_209_221_Y216 | SUM149 lysate, DDR2_733_745_Y740 | SUM159 lysate, CDK7_157_169_S164 | SUM159 lysate, DDR2_733_745_Y740
1.14: MDAMB435s lysate, GSK3B_209_221_Y216
1.04: MDA231PAR lysate, CREB1_122_134_Y134/S133 | MKN45 lysate, PGFRB_768_780_Y771/Y775/Y778 | MKN45 lysate, PRRX2_202_214_Y214
0.98: MCF7 lysate, TYRO3_679_691_Y686 | MDA231PAR lysate, GSK3B_209_221_Y216 | MDAMB435s lysate, PLCG1_764_776_Y771 | SNU5 lysate, CDK7_157_169_S164 | SNU5 lysate, GSK3B_209_221_Y216 | SNU5 lysate, NPT2_501_513_T508 | SUM159 lysate, NPT2_501_513_T508
1.09: MDA231PAR lysate, NPT2_501_513_T508 | MDAMB435s lysate, CREB1_122_134_Y134/S133 | MDAMB435s lysate, NCF1_313_325_S315/S320 | MDAMB435s lysate, STAT2_683_695_Y690 | SUM159 lysate, STAT2_683_695_Y690
1.03: MDA231PAR lysate, NCF1_313_325_S315/S320 | MDAMB435s lysate, PRRX2_202_214_Y214 | RSJSA1 lysate, PRRX2_202_214_Y214 | RSJSA1 lysate, STAT2_683_695_Y690 | SUM159 lysate, CREB1_122_134_Y134/S133 | SUM159 lysate, SYN1_2_14_S9 | U118MG lysate, PRRX2_202_214_Y214
1.19: MOLT4 lysate, GSK3B_209_221_Y216
0.95: MKN45 lysate, MK10_216_228_T221/Y223 | MKN45 lysate, NCF1_313_325_S315/S320 | MOLT4 lysate, STAT2_683_695_Y690 | RSJSA1 lysate, ENOG_37_49_Y43 | SHSY5Y lysate, TYRO3_679_691_Y686 | SNU5 lysate, DDR2_733_745_Y740 | SUM149 lysate, PLCG1_764_776_Y771
1.07: MDAMB435s lysate, DDR2_733_745_Y740
1.12: MDAMB435s lysate, SYN1_2_14_S9
0.78: MOLT4 lysate, DDR2_733_745_Y740 | SNU484 lysate, GSK3B_209_221_Y216 | SUM149 lysate, NPT2_501_513_T508
0.17: MOLT4 lysate, PGFRB_768_780_Y771/Y775/Y778
0.58: SUM149 lysate, PGFRB_768_780_Y771/Y775/Y778
0.86: MDA231PAR lysate, PECA1_706_718_Y713
1.11: MDA231PAR lysate, DDR2_733_745_Y740 | RSJSA1 lysate, GSK3B_209_221_Y216 | SHSY5Y lysate, SYN1_2_14_S9
0.77: MOLT4 lysate, ENOG_37_49_Y43 | MOLT4 lysate, PECA1_706_718_Y713 | SKBR3 lysate, ENOG_37_49_Y43
0.96: MOLT4 lysate, NPT2_501_513_T508 | RSJSA1 lysate, MK10_216_228_T221/Y223 | RSJSA1 lysate, NPT2_501_513_T508 | SHSY5Y lysate, PECA1_706_718_Y713 | SHSY5Y lysate, PLCG1_764_776_Y771
0.80: MDA231PAR lysate, RASA1_453_465_Y460 | MOLT4 lysate, PLCG1_764_776_Y771
1.18: MOLT4 lysate, NCF1_313_325_S315/S320
0.89: SKBR3 lysate, GSK3B_209_221_Y216 | SNU5 lysate, PGFRB_768_780_Y771/Y775/Y778 | SNU5 lysate, PRRX2_202_214_Y214 | SNU5 lysate, TYRO3_679_691_Y686 | SUM149 lysate, STAT2_683_695_Y690 | SUM159 lysate, MK10_216_228_T221/Y223
0.81: RSJSA1 lysate, CDK7_157_169_S164 | SNU5 lysate, ENOG_37_49_Y43 | SNU5 lysate, PECA1_706_718_Y713
0.94: MKN45 lysate, CREB1_122_134_Y134/S133 | MKN45 lysate, DDR2_733_745_Y740 | MKN45 lysate, SYN1_2_14_S9 | U118MG lysate, NPT2_501_513_T508 | U118MG lysate, RASA1_453_465_Y460
1.02: MOLT4 lysate, CREB1_122_134_Y134/S133 | RSJSA1 lysate, DDR2_733_745_Y740 | SUM149 lysate, SYN1_2_14_S9 | U118MG lysate, SYN1_2_14_S9
1.01: SHSY5Y lysate, DDR2_733_745_Y740 | SNU5 lysate, CREB1_122_134_Y134/S133 | SNU5 lysate, SYN1_2_14_S9
0.71: SUM149 lysate, PRRX2_202_214_Y214
0.82: SUM159 lysate, ENOG_37_49_Y43 | SUM159 lysate, RASA1_453_465_Y460
0.99: MDA231PAR lysate, TYRO3_679_691_Y686 | MKN45 lysate, GSK3B_209_221_Y216 | RSJSA1 lysate, CREB1_122_134_Y134/S133 | SHSY5Y lysate, ENOG_37_49_Y43 | SNU5 lysate, MK10_216_228_T221/Y223 | SNU5 lysate, NCF1_313_325_S315/S320 | SUM159 lysate, NCF1_313_325_S315/S320 | U118MG lysate, CREB1_122_134_Y134/S133
1.08: MDAMB435s lysate, CDK7_157_169_S164
0.87: SHSY5Y lysate, GSK3B_209_221_Y216 | SHSY5Y lysate, RASA1_453_465_Y460 | SUM149 lysate, PECA1_706_718_Y713 | SUM159 lysate, PECA1_706_718_Y713 | SUM159 lysate, TYRO3_679_691_Y686
0.72: MOLT4 lysate, PRRX2_202_214_Y214 | SUM149 lysate, CDK7_157_169_S164
1.10: SHSY5Y lysate, MK10_216_228_T221/Y223
1.05: MDAMB435s lysate, NPT2_501_513_T508 | RSJSA1 lysate, SYN1_2_14_S9 | U118MG lysate, NCF1_313_325_S315/S320
1.22: MOLT4 lysate, SYN1_2_14_S9 | RSJSA1 lysate, TYRO3_679_691_Y686
